This passage reports odorant receptor activation results from the odorant receptor screen of Mainland et al. (2015).

Some test systems named below: OR8G5 clone 1493; OR8H1 clone 1388; OR8H3 P137S clone 1215; OR8I2 clone 1213; OR8J1 Y120C clone 1500; OR8J3 clone 1149; OR8K1 clone 1431; OR8K3 L122R clone 1195; OR8K5 clone 1150.
Common to all, as to test: odorant receptor activation (CRE luciferase / Renilla) (fold of no-odor wells); higher = more activation
Holding throughout (details): 100 µM

Test [1] has as its system OR8H2 A105V/I154M/V158L/Y169C/D170Y/Y259H/V284M clone 1214.

Where “and” joins values, the source holds several entries; their conditions need not be identical. Identical values can stand only once. Some of the results follow. Each value is one well over the wells without odorant, computed here; the data are noisy.

For `C=CCc1ccc(OC(C)=O)c(OC)c1` [eugenol acetate], the odorant receptor activation stood at 1.27 in the test on OR8G5 clone 1493; 1.51 in the test on OR8H1 clone 1388; 1.8 in test [1]; 1.49 in the test with OR8H3 P137S clone 1215; 1.48 in the test on OR8I2 clone 1213; 1.75 in the test on OR8J1 Y120C clone 1500. Moreover, the odorant receptor activation in the test on OR8J3 clone 1149 worked out at 1.51; with OR8K1 clone 1431, 1.73; in the test on OR8K3 L122R clone 1195, 1.85; in the test on OR8K5 clone 1150, 1.55.

`CC12CCC(CC1)C(C)(C)O2` [cineole]: the odorant receptor activation came to 0.888 with OR8G5 clone 1493; 0.187 in the test with OR8H1 clone 1388; 0.819 in test [1]; 0.817 in the test on OR8H3 P137S clone 1215; 0.755 in the test with OR8I2 clone 1213; 1.01 with OR8J1 Y120C clone 1500. Also, the odorant receptor activation in the test on OR8J3 clone 1149 turned out to be 0.761; in the test with OR8K1 clone 1431, 0.122; in the test on OR8K3 L122R clone 1195, 1.02; with OR8K5 clone 1150, 0.644.

Take `CC(=O)OC(C)(C)C1CC=C(C)CC1` (stereo not given) [terpinyl acetate]: the odorant receptor activation in the test on OR8G5 clone 1493 was determined as 0.881; with OR8H1 clone 1388 it was 1.05; in [1], 1.09; in the test with OR8H3 P137S clone 1215, 1.18; in the test with OR8I2 clone 1213, 1.46; in the test with OR8J1 Y120C clone 1500 it was 0.953. Moreover, the odorant receptor activation in the test on OR8J3 clone 1149 was 1.82; in the test on OR8K1 clone 1431, 0.997; with OR8K3 L122R clone 1195, 1.1; in the test with OR8K5 clone 1150, 1.38.

Take `O=C1CCCCCCCCCCCCCCO1` [pentadecalactone]: the odorant receptor activation in the test with OR8G5 clone 1493 was found to be 0.858; with OR8H1 clone 1388, 1.19; in [1] it was 0.923; with OR8H3 P137S clone 1215, 1.01; in the test on OR8I2 clone 1213, 0.84; in the test with OR8J1 Y120C clone 1500, 0.796. For the same compound, the odorant receptor activation was determined as 0.9 in the test on OR8J3 clone 1149, 1.26 in the test on OR8K1 clone 1431, 0.741 in the test with OR8K3 L122R clone 1195 and 0.948 in the test on OR8K5 clone 1150.

Regarding `CCCCO` [1-butanol], the odorant receptor activation in the test with OR8G5 clone 1493 amounted to 1.18; in the test with OR8H1 clone 1388 it was 1.49; in [1], 0.813; in the test with OR8H3 P137S clone 1215, 0.885; with OR8I2 clone 1213, 0.917; with OR8J1 Y120C clone 1500, 0.974. Further, the odorant receptor activation in the test on OR8J3 clone 1149 was 1.03; in the test on OR8K1 clone 1431, 0.725; in the test on OR8K3 L122R clone 1195 it was 0.719; with OR8K5 clone 1150, 1.02.

Regarding `C=C(C)C1CC=CCC1` (stereo not given) [r-limonene], the odorant receptor activation with OR8G5 clone 1493 was 0.879 and 1.22 and 0.812; with OR8H1 clone 1388, 1.32; in [1], 1.26 and 0.534; in the test on OR8H3 P137S clone 1215, 1.4 and 0.596; in the test with OR8I2 clone 1213, 1.24 and 0.418; in the test on OR8J1 Y120C clone 1500, 0.864 and 0.954 and 0.95. Besides, the odorant receptor activation with OR8J3 clone 1149 was 1.23 and 0.779; with OR8K1 clone 1431, 1.53 and 1.09; in the test on OR8K3 L122R clone 1195, 0.903 and 0.457; with OR8K5 clone 1150, 1.01 and 0.636.

For `CC(C)C(=O)O` [isobutyric acid], the odorant receptor activation is 1.03 and 1.16 in the test with OR8G5 clone 1493; 0.67 with OR8H1 clone 1388; 1.37 in [1]; 1.06 with OR8H3 P137S clone 1215; 1.35 in the test with OR8I2 clone 1213; 0.919 and 0.931 with OR8J1 Y120C clone 1500. For the same compound, the odorant receptor activation in the test with OR8J3 clone 1149 amounted to 0.956; with OR8K1 clone 1431, 0.761; in the test with OR8K3 L122R clone 1195, 0.884; with OR8K5 clone 1150, 1.11.

Take `COC(=O)c1ccccc1` [methyl benzoate]: the odorant receptor activation is 1.34 and 0.853 in the test on OR8G5 clone 1493; 1.11 in the test on OR8H1 clone 1388; 0.976 in test [1]; 0.942 in the test with OR8H3 P137S clone 1215; 0.931 in the test on OR8I2 clone 1213; 1.09 and 1.04 with OR8J1 Y120C clone 1500. Further, the odorant receptor activation amounted to 1.18 in the test on OR8J3 clone 1149, 0.981 in the test on OR8K1 clone 1431, 0.923 with OR8K3 L122R clone 1195 and 1.17 in the test with OR8K5 clone 1150.

Take `CCCCCCOC(=O)CCC` [hexyl butyrate]: the odorant receptor activation in the test on OR8G5 clone 1493 is 1.13 and 0.792; with OR8H1 clone 1388, 0.758; in [1], 1.46; in the test with OR8H3 P137S clone 1215 it was 0.967; in the test with OR8I2 clone 1213 it was 1.21; in the test on OR8J1 Y120C clone 1500, 0.983 and 0.613. The odorant receptor activation in the test on OR8J3 clone 1149 turned out to be 1.09; with OR8K1 clone 1431, 0.892; in the test on OR8K3 L122R clone 1195, 0.921; with OR8K5 clone 1150 it was 0.928.

Regarding `c1ccc(Oc2ccccc2)cc1` [diphenyl ether], the odorant receptor activation with OR8G5 clone 1493 is 0.78; in the test on OR8H1 clone 1388 it was 0.84; in [1], 1.1; in the test on OR8H3 P137S clone 1215, 0.9; in the test with OR8I2 clone 1213, 0.886; with OR8J1 Y120C clone 1500, 1.35. Besides, the odorant receptor activation in the test on OR8J3 clone 1149 was found to be 0.867; with OR8K1 clone 1431, 0.996; with OR8K3 L122R clone 1195, 0.97; in the test with OR8K5 clone 1150 it was 0.869.

Turning to `CCCCCC(C)=O` [2-heptanone], the odorant receptor activation with OR8G5 clone 1493 was 1.35 and 0.545; in the test on OR8H1 clone 1388, 1.35; in test [1] it was 1.21; with OR8H3 P137S clone 1215 it was 1.03; with OR8I2 clone 1213, 1.15; in the test on OR8J1 Y120C clone 1500 it was 0.907 and 0.766. Also, the odorant receptor activation was determined as 1.63 in the test on OR8J3 clone 1149, 1.13 in the test on OR8K1 clone 1431, 0.84 with OR8K3 L122R clone 1195 and 1.15 with OR8K5 clone 1150.

With `CCCC(=O)O` [butyric acid], the odorant receptor activation was 1 in the test with OR8G5 clone 1493; 0.206 in the test with OR8H1 clone 1388; 1.07 in [1]; 1.07 in the test with OR8H3 P137S clone 1215; 0.879 in the test with OR8I2 clone 1213; 1.47 in the test with OR8J1 Y120C clone 1500. For the same compound, the odorant receptor activation with OR8J3 clone 1149 is 1.13; in the test with OR8K1 clone 1431, 0.129; in the test on OR8K3 L122R clone 1195, 1.24; with OR8K5 clone 1150, 0.874.

On to `CCCCCCCCC=O` [nonyl aldehyde], for which the odorant receptor activation was determined as 0.814 with OR8G5 clone 1493; 1.05 with OR8H1 clone 1388; 1.19 in test [1]; 1.12 in the test on OR8H3 P137S clone 1215; 1.23 in the test with OR8I2 clone 1213; 0.881 with OR8J1 Y120C clone 1500. The odorant receptor activation in the test with OR8J3 clone 1149 is 0.947; in the test on OR8K1 clone 1431, 1.15; with OR8K3 L122R clone 1195, 1.05; with OR8K5 clone 1150, 0.844.

For `c1cnccn1` [pyrazine], the odorant receptor activation in the test with OR8G5 clone 1493 turned out to be 0.722; in the test with OR8H1 clone 1388, 1.22; in test [1], 0.938; in the test with OR8H3 P137S clone 1215, 1.16; with OR8I2 clone 1213, 0.939; with OR8J1 Y120C clone 1500, 0.734. The odorant receptor activation in the test with OR8J3 clone 1149 came out at 1.24; with OR8K1 clone 1431 it was 1.24; in the test with OR8K3 L122R clone 1195, 0.787; with OR8K5 clone 1150 it was 0.997.
